This assay addresses Rhesus PSMA (Rhesus). Briefly: IHC staining.

These are yes or no findings as the source states them, for the method shown. Some results given as binding are weak or reduced against the parent protein; the word gives no strength. Where a sequence is shown, tags or fusion partners need not be part of it.

B1: NGS2 dAb in murine IgG2A-Fc format (Fc fusion, not shown: a dimerising Fc or GST)
chain: QVQLQESGGGWVQAGGSLRLSCAASGRTSRTYTMGWFRQAPGKDGVFVAGITWSTWSSDKTQYLDSVNSRFTISRDNARNTVYLQMNNLKPEDTAVYYCAATPRYYGVAVPTTRGPYDYWGQGTQVTVSS
Regarding B1, the binding result is recorded as “binds”.

The record behind these values is patent US20240252534A1.
